The target of test [1] is human μ opiate receptor (Homo sapiens, UniProt P35372). As to the kind of experiment: μ opiate receptor binding assay, membrane preparation of CHO-K1 cells, [3H]-naloxone (or DAMGO) displacement. Conditions: read-out: μ Ki (DA); (DA): measured using DAMGO instead of naloxone; tested form: citrate.
In test [2] the target is ORL1 receptor (Homo sapiens, UniProt P41146). The test can be described thus: ORL1 receptor binding assay with 3H-nociceptin/orphanin FQ, membranes of recombinant CHO-ORL1 cells. Particulars: read-out: ORL1 Ki, 3H-nociceptin/orphanin FQ 0.5 nM, tested form: citrate.

Chains of the proteins cited; added tags and fusions are not shown.
UniProt P35372, whole entry: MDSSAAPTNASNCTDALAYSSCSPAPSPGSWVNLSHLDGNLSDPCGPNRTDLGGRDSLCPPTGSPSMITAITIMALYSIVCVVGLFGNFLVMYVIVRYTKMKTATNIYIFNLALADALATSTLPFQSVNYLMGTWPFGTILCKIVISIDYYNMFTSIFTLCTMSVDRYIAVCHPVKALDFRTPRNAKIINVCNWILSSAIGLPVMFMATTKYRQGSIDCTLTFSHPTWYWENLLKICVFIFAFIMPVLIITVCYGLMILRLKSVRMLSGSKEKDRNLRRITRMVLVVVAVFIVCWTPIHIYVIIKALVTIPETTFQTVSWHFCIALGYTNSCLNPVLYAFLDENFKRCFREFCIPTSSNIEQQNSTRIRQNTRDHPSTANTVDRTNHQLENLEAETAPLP
UniProt P41146, whole entry: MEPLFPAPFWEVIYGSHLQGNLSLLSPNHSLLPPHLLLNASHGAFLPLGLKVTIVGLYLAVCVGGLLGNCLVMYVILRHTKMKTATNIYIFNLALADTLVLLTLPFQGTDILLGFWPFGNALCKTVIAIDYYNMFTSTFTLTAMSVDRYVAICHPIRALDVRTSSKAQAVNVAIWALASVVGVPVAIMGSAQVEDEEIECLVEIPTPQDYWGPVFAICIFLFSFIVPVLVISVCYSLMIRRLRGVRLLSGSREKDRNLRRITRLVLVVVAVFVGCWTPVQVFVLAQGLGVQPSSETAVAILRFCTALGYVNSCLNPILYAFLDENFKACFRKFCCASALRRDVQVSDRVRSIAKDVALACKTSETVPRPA

pKi: −log10 of the molar value. The match of structure and compound is tentative.

Regarding `CN(C)C1(c2ccccc2)CCC(CNC(=O)N2CC=C(c3c[nH]c4ccc(F)cc34)CC2)CC1` (single isomer, unassigned) [Example 44], the pKi in test [1] was 8.24; in test [2], 6.96.
Taken in the same sequence, the figures for `CN(C)C1(c2ccccc2)CCC(CNC(=O)N2CC=C(c3c[nH]c4ccc(F)cc34)CC2)CC1` (single isomer, unassigned) [Example 43] were 7.82 and 6.80.

Source of the values: patent US7759385B2, “4-substituted 1-aminocyclohexane compounds for utilization as ORL1-receptor and mu-opiate receptor ligands” (priority 2002, dated 2010).
